The text below walks through data of PubChem BioAssay AID651595 (National Center for Advancing Translational Sciences (NCATS), 2012).

Hit rate of the full screen: of about 1,100 compounds, fewer than 10 were called active. Roughly 6% stayed inconclusive and do not appear here. Calls come from the whole dose curve; as a rule, active = well fitted cell-killing curve with a large enough effect; inconclusive = small, poorly fitted or top-dose-only effect; inactive = flat fitted curve, though single readings scatter. Some of the results follow.

The nature of this assay: qHTS of Nrf2 Activators: Hit Validation in Cytotox Assay.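 Note: compound exposure lasted 24 hours before the ATP readout; 0% is about no effect.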 Particulars: Cell viability counter-screen for Nrf2 activator hits; series mostly up to 46.1 µM; activity change, negative = cytotoxicity: at the top concentration. The source says: Many diseases have some form of oxidative stress injury and ties to inflammation, causing a host of problems for the patient. The antioxidant response element (ARE) plays an important role in alleviating the harmful effects of oxidative stress. The antioxidant response element (ARE) is a transcriptional regulatory element involved in the activation of genes coding for a number of antioxidant proteins and detoxifying enzymes. These enzymes work in concert to protect tissues from oxidative insults and chemical toxicities in human hepatocytes and immune cells. The protective effects of ARE activation are primarily triggered through Nrf2 (NF-E2-related factor) binding to and activating AREs. It is known that Nrf2 controls the production of over 250 antioxidant and detoxification proteins (Hu et al., 2006), thereby protecting tissues by increasing cellular antioxidant content and suppressing inflammatory signaling pathways. The transcription factor Nrf2 is a central link between oxidative chemicals, such as phenolic antioxidants and electrophilic compounds, and the activation of ARE. Nrf2 levels are constitutively low as a consequence of its interaction with Keap1, which targets its degradation (Zipper and Mulcahy, 2002). Electrophiles react with key cysteine residues in Keap1, releasing Nrf2 and allowing its translocation to the nucleus. Once within the nucleus, Nrf2 complexes with coactivators such as p300, and binds to the AREs to induce gene transcription of cytoprotective enzymes, resulting in the prevention of toxicity. Activation of Nrf2 protects tissues by increasing cellular antioxidant content and suppressing inflammatory signaling pathways. Identifying novel and potent Nrf2 activators by using the AREc32 cell line to detect ARE activation by small molecules will lead to the identification and development of probes to study protective pathways in multiple tissues. These specific probes are essential to study the ARE pathway, and eventually to determine whether this pathway does activate genes that could protect against a host of diseases, including cardiovascular diseases, obesity, diabetes, Alzheimer's, and Parkinson's disease.
This project's aim is to identify novel and potent Nrf2 activators by using the AREc32 cell line to detect ARE activation by small molecules, which will lead to the identification and development of probes to study the ARE pathway. Cytotoxic compounds are flagged as active, and inactivity is desired in this assay.
NIH Chemical Genomics Center [NCGC]
NIH Molecular Libraries Probe Centers Network [MLPCN]
Assay Submitter (PI): Curtis Klaassen, University of Kansas Medical Center
Cell viability after compound treatment was measured using a luciferase-coupled ATP quantitation assay (CellTiter-Glo, Promega) in AREc32_fluc cells. The change of intracellular ATP content indicates the number of metabolically competent cells after compound treatment. AREc32_fluc cells were harvested from T225 flask and resuspended in phenol red free OPTI-MEM medium with 5% FBS. Then 5 microL of 200,000 cells/ml resuspended cells was dispensed into each well of white, solid bottom, 1536-well tissue culture-treated plates using a Multidrop Combi dispenser. After overnight culture at 37 degrees C with 5% CO2, a total of 23 nL of compounds at 7 selected concentrations from the cherry pick or positive control (40 uM stock of CDDO-IM and 2 mM of tBHQ) in DMSO was transferred to each well of the assay plate using a pintool (Kalypsys, San Diego, CA), and the plates were further incubated at 37 degrees C with 5% CO2 for 24 hours. After that, 4 microL of CellTilter-GloTM luminescent substrate mix (Promega) was added to each well. The plate was incubated at room temperature for 30 minutes. The plates were measured on a ViewLux plate reader (PerkinElmer) with clear filter.
As for `COc1ncccc1-c1cc2nc(NCCNC(C)=O)n(C)c(=O)c2s1`, the “activity change, negative = cytotoxicity” value was inactive: 4.61%.
In the case of `CCOC(=O)COn1c(=O)c(-c2ccco2)[n+]([O-])c2ccccc21`, the “activity change, negative = cytotoxicity” value is inactive: 5.99%.
As for `O=C(Cn1ncc(Cl)c(Cl)c1=O)NC1CCS(=O)(=O)C1` (stereo unspecified), the “activity change, negative = cytotoxicity” value was inactive: 8.46%.
For `COc1ccccc1CNC(=O)COC(=O)c1cc(-c2ccco2)nc2ccccc12`, the “activity change, negative = cytotoxicity” value was inactive: -1.42%.
As to `O=C(Nc1ccccc1F)c1cc(-c2ccco2)nc2ccccc12`, the “activity change, negative = cytotoxicity” value is inactive: 9.87%.
Take `NC(=O)c1ccsc1NC(=O)COC(=O)[C@@H]1CCCN1C(=O)c1cccs1`: the “activity change, negative = cytotoxicity” value was inactive: 1.09%.
As for `COc1ccc(Cl)cc1NC(=O)C1COc2ccccc2O1` (stereo unspecified), the “activity change, negative = cytotoxicity” value was inactive: 4.89%.
For the compound `COC(=O)c1sccc1NC(=O)c1ccc(OC)c(OC)c1`, the “activity change, negative = cytotoxicity” value is inactive: 4.1%.
The same measure for `Oc1ccc(CNc2ccccc2O)cc1`: inactive: 3.82%; for `Fc1cccc(Cc2c(-c3ccco3)nc3ccc(Br)cn23)c1`: inactive: -15.8%; for `N/C(=N\OC(=O)c1cccc2ccccc12)c1ccc(Br)cc1`: inactive: 0.0122%.
The same measure for `S=c1[nH]nc(-c2cccnc2)n1/N=C/C(Cl)=C\c1ccccc1`: inactive: -5.32%; for `O=C(Nc1ncc2c(n1)-c1ccccc1CC2)c1ccccc1`: inactive: 5.98%.
The same measure for `CCN(CC)c1ccc2c(c1)oc(=O)c1c(Cl)cc(=O)oc12`: inactive: 21.8%; for `CC(=O)c1ccccc1NC(=O)COC(=O)/C=C/c1ccc(C)o1`: inactive: 11.2%; for `Cc1ccc(S(=O)(=O)CCSC(=N)N)cc1`: inactive: -2.62%.
`Cc1c(Cl)cccc1N=c1c([N+](=O)[O-])nn(-c2ccccc2)n1O`: the “activity change, negative = cytotoxicity” value was inactive: 3.05%.
As for `O=C(Nc1ccccn1)c1ccc(Cl)c([N+](=O)[O-])c1`, the figure is inactive: 0.552%.
Regarding `COc1ccc(NC(=O)CSc2ccc(-c3ccco3)nn2)c(OC)c1`, the “activity change, negative = cytotoxicity” value is inactive: 1.32%.
The same measure for `CCN=c1scc(C)n1/N=C/c1ccsc1`: inactive: 7.84%.
The same measure for `COc1ccccc1NC(=O)c1ccc(Cl)c(S(=O)(=O)NCc2ccco2)c1`: inactive: 0.292%; for `O=C(NNC(=O)C12CC3CC(CC(C3)C1)C2)c1cccc([N+](=O)[O-])c1`: inactive: 2.25%; for `Cc1ccc(S(=O)(=O)c2nc(S(C)(=O)=O)sc2N2CCCCC2C)cc1` (stereo unspecified): inactive: -0.821%.
As to `CSc1c(C#N)c(N)nc2sc(C(=O)c3ccccc3)c(N)c12`, the “activity change, negative = cytotoxicity” value is inactive: 6.05%.
For `[O-][n+]1onc2c3cc(-c4ccccc4)nnc3ccc21`, the “activity change, negative = cytotoxicity” value is inactive: 0.985%.
On to `O=C1CC(C(=O)Nc2ccc(Br)cc2)S/C(=N\N=C\c2ccco2)N1` (stereo unspecified), for which the “activity change, negative = cytotoxicity” value was inactive: 1.59%.
As for `Cc1nn2c(-c3ccco3)nnc2c2ccccc12`, the figure is inactive: 6.15%.
The same measure for `Clc1ccsc1-c1csc(-c2cccnc2)n1`: inactive: 2.62%.
For `Nc1ccc(S(=O)(=O)Nc2nccc(/C=C/c3cccc(Br)c3)n2)cc1`, the “activity change, negative = cytotoxicity” value is inactive: 10.6%.
Regarding `C#CCSc1nnc(-c2sc3ccccc3c2Cl)o1`, the “activity change, negative = cytotoxicity” value was inactive: 0.211%.
For the compound `Nc1ccccc1C=C1Cc2ccccc2C1=O`, the “activity change, negative = cytotoxicity” value was inactive: -10.1%.
As for `Cc1ccc(Cl)c2sc(NC(=O)C3CC3)nc12`, the figure is inactive: 8.93%.
The same measure for `O=C(Cn1cnc2ccccc21)N/N=C/C(Br)=C/c1ccccc1`: inactive: -8.42%; for `O=C(Nc1ccc(Cl)cn1)c1cnn2cccnc12`: inactive: 8.42%.
On to `CN1CCN(c2sc(S(C)(=O)=O)nc2S(=O)(=O)c2ccc(Cl)cc2)CC1`, for which the “activity change, negative = cytotoxicity” value is inactive: 7.61%.
With `CC(C)(C)OC(=O)NCCC(=O)N/N=C/c1cccc2cccnc12`, the “activity change, negative = cytotoxicity” value is inactive: -0.796%.
As for `O=C(N=Nc1c(O)[nH]c2ccc(Br)cc12)c1ccco1`, the “activity change, negative = cytotoxicity” value is inactive: -0.259%.
For the compound `c1ccc(-c2noc(-c3cccc4ccccc34)n2)cc1`, the “activity change, negative = cytotoxicity” value was inactive: 1.28%.
As for `COC(=O)c1ccc2nc(-c3ccco3)c(Cc3cccc(Cl)c3)n2c1`, the figure is inactive: 0.488%.
The same measure for `O=c1c(-c2ccco2)[n+]([O-])c2ccccc2n1OCc1c(F)cccc1F`: inactive: -1.1%.
The same measure for `CC(C)CCNC(=O)c1cc(-c2ccco2)nc2ccccc12`: inactive: 2.06%; for `COC(=O)C1=C(C)N(C)C(=O)/C1=C\c1ccco1`: inactive: 6.09%; for `O=C(Nc1ccc(F)cc1)c1nsc(Cl)c1Cl`: inactive: 1.43%.
For `CCCC(=O)Nc1sc(C)c(C)c1C#N`, the “activity change, negative = cytotoxicity” value is inactive: -3.29%.
In the case of `Fc1cc(F)c2nc(Nc3nc4cc5c(cc4s3)OCO5)sc2c1`, the “activity change, negative = cytotoxicity” value is inactive: -28.7%.
Regarding `CNc1ccc(Br)cc(C(=O)/C=C/c2cccc(Cl)c2Cl)c1=O`, the “activity change, negative = cytotoxicity” value is inactive: -3.24%.
As for `N#Cc1nc(-c2ccco2)oc1N1CCCC1`, the figure is inactive: 10.4%; as for `N#CC(C(=O)NCc1ccco1)c1nc2ccccc2nc1N1CCOCC1` (stereo unspecified), inactive: -1.99%.
Take `COC(=O)c1sccc1NC(=O)c1ccccc1F`: the “activity change, negative = cytotoxicity” value is inactive: 2.7%.
The same measure for `COC(=O)c1ccccc1NC(=O)COc1ccccc1[N+](=O)[O-]`: inactive: -3.65%; for `N#C/C(=C1/C(=O)Nc2ccc(Br)cc21)c1ccccn1`: inactive: 1.23%.
As for `O=c1cc(COc2ccccc2[N+](=O)[O-])nc2sccn12`, the figure is inactive: -3.42%; as for `CC(/C=N/n1c(-c2ccncc2)n[nH]c1=S)=C\c1ccco1`, inactive: 0.506%.
Turning to `c1ccc(-c2cnc(-c3ccccc3)nn2)cc1`, the “activity change, negative = cytotoxicity” value was inactive: -0.44%.
As for `COc1cc(/C=N/Nc2nc3ccccc3s2)ccc1OC(=O)c1ccccc1F`, the figure is inactive: 2.19%.
The same measure for `COc1ccc(Nc2nnc(SCC(=O)c3cc4ccccc4o3)s2)cc1`: inactive: 10.7%; for `Cc1cc(SCC(=O)c2cccs2)nc2ccccc12`: inactive: -9.71%; for `C/C(=N\NC(=S)Nc1cccc(C)c1)c1ccco1`: inactive: -0.155%.
As for `O=C(CCS(=O)(=O)c1ccccc1)Nc1nc(-c2ccccn2)cs1`, the figure is inactive: 2.62%; as for `O=C(NCc1ccco1)c1n[nH]c(=O)c2ccccc12`, inactive: -3.92%; as for `COc1ccccc1Cc1c(-c2ccco2)nc2c3ccccc3ccn12`, inactive: -27.5%.
